One molecule from patent US20030092624A1 (YISSUM RESEARCH DEVELOPMENT COMPANY OF THE HEBREW …, published 2003) can be followed below.

Results are given in words; binding and its absence hold for the method and conditions named. Some binding calls cover weakened binding; strength is not graded here. Sequences can lack the tags named with a protein.

The target in this experiment is non-fused recombinant SP1 secreted by Pichia pastoris (pPIC9K-SP1) (aspen). Description: SDS-PAGE of heat- and SDS-treated culture medium; self-association of monomers.

B1: non-fused recombinant SP1 secreted by Pichia pastoris (pPIC9K-SP1) (protein)
chain: MATRTPKLVKHTLLTRFKDEITREQIDNYINDYTNLLDLIPSMKSFNWGTDLGMESAELNRGYTHAFESTFESKSGLQEYLDSAALAAFAEGFLPTLSQRLVIDYFLY
Turning to B1, the binding entry is reported as “binds”.
